Measured data: PubChem BioAssay AID1259254 (NCATS, 2017)
In all, the deposit lists about 59,000 reagents; below is a part drawn at random. About 1,550 of all reagents (2.6%) count as active. 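G2 share is only a proxy for re-replication; each gene was hit by three separate siRNAs, and active genes were retested.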 Raw values vary from plate to plate and are shown uncorrected. Entries without a mark were called inactive. The numbers tell different reagents against one gene apart. Not stated in the record: the amount of reagent.

Aim: 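Gene knock-downs that lead to re-replication, shown by excess G2 DNA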 (primary screen)
Cells: human HCT116 colorectal cancer cells
Reagents: single siRNA against human genes
Duration: 3 days
Read-out: 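Nuclei stained with Hoechst and imaged; cell-cycle phase assigned by DNA content; G2 share scaled per plate, non-targeting siRNA 0%, GMNN siRNA 100%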
Scale: G2 robust z-score and G2 cells, % of GMNN control: higher = more G2 cells, more excess DNA replication; raw share of cells in G2: higher = larger share of cells with G2 DNA content
Active means: 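Active siRNAs have a G2 robust z of 5 or more median absolute deviations over the median, which in these data means about 38% or higher of GMNN control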

Target gene	reagent no.	G2 robust z-score	G2 cells, % of GMNN control	raw share of cells in G2 (%)
RMDN2	1	1.3	12.1	7.89
RMDN2	2	-0.449	-0.191	2.85
RMDN2	3	-0.697	-1.93	2.39
LOC730338	1	0.178	4.22	5.32
LOC730338	2	0.129	3.87	5.1
LOC730338	3	0.199	4.37	5.14
RTP5	1	0.257	4.78	5.38
RTP5	2	0.0992	3.67	4.46
RTP5	3	0.72	8.03	5.71
SLC5A9	1	1.02	10.2	8.42
SLC5A9	2	0.495	6.45	7.41
SLC5A9	3	-0.193	1.61	6.73
RPL29P31	1	-0.0734	2.45	4.53
RPL29P31	2	0.703	7.91	6.1
RPL29P31	3	-0.759	-2.37	2.55
FZR1	1	0.0239	3.14	3.9
FZR1	2	0.239	4.65	8.01
FZR1	3	-0.0896	2.34	4.37
ZNF416	1	1.84	15.9	8.4
ZNF416	2	-1.14	-5.03	3.64
ZNF416	3	0.419	5.92	5.49
CCND2	1	-0.902	-3.38	2.93
CCND2	2	-0.283	0.977	5.35
CCND2	3	-0.654	-1.63	4.38
FXYD5	1	-0.246	1.24	4.7
FXYD5	2	-0.676	-1.79	3.11
FXYD5	3	0.565	6.95	9.1
MRM2	1	0.176	4.2	5.37
MRM2	2	-0.416	0.0436	6.18
MRM2	3	-0.997	-4.05	2.84
CD109	1	-0.949	-3.71	2.78
CD109	2	0.197	4.35	4.48
CD109	3	-0.297	0.876	2.9
RFK	1	2.68	21.8	10.7
RFK	2	-0.645	-1.57	5.1
RFK	3	-0.104	2.24	6.01
SULT1A2	1	1.03	10.2	9.12
SULT1A2	2	-0.741	-2.24	3.78
SULT1A2	3	-0.986	-3.97	2.64
CCNB2	1	-0.819	-2.8	4.28
CCNB2	2	-0.429	-0.0508	4.51
CCNB2	3	1.79	15.5	10.3
PSD2	1	-0.0807	2.4	3.13
PSD2	2	3.25	25.8	12.7
PSD2	3	1.07	10.5	6.58
HTRA2	1	0.595	7.16	8.05
HTRA2	2	-1.19	-5.44	2.98
HTRA2	3	0.515	6.59	6.37
